In the supplement of paper PMC6411743:
± gives the standard deviation of the averaged measurements. The list shows a part of the results, in another mix than the full data. Small differences around the control level are noise.

Sequences of proteins named here, by UniProt entry; tags and fusion partners are left off. A change or cut given only in a name is not applied to a line headed by its entry.
UniProt Q75N03: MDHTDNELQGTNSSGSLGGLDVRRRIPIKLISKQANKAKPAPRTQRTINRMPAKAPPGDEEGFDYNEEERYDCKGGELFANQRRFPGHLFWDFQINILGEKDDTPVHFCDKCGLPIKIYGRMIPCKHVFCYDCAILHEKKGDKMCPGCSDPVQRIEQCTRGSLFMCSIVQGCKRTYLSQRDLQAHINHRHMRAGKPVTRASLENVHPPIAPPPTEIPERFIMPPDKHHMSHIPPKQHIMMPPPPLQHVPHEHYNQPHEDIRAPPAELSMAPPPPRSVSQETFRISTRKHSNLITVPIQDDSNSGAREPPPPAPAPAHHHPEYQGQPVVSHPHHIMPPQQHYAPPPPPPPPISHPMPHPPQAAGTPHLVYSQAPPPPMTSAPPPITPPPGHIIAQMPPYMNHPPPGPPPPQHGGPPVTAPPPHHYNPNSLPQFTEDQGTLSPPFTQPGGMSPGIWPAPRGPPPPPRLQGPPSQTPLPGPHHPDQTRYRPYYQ
UniProt Q86UV5: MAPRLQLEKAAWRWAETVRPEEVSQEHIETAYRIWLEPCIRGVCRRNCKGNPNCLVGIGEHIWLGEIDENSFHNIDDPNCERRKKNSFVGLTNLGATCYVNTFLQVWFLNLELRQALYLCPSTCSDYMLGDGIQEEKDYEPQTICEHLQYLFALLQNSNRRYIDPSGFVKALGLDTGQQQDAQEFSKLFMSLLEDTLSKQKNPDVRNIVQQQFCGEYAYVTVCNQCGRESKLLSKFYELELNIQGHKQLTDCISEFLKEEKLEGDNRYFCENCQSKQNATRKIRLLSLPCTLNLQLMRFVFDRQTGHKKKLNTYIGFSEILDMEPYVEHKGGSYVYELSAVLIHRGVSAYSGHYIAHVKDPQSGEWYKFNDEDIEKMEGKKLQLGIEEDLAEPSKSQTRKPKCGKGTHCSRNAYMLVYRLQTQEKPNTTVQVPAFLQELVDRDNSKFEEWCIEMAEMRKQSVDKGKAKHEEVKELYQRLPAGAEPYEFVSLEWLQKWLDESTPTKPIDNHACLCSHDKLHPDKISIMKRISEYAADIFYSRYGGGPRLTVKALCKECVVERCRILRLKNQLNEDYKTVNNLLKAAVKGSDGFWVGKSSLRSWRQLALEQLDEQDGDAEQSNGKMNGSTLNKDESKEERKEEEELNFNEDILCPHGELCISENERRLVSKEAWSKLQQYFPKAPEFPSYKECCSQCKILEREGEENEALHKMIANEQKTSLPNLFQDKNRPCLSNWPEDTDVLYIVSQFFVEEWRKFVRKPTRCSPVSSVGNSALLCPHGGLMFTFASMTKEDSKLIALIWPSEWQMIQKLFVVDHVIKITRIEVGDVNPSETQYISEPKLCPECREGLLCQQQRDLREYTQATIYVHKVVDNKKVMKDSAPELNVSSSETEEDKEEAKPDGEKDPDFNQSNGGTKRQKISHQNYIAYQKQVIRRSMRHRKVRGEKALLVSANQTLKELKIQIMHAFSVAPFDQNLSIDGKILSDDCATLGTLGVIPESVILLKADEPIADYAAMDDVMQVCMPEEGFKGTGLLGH
UniProt Q71RG4: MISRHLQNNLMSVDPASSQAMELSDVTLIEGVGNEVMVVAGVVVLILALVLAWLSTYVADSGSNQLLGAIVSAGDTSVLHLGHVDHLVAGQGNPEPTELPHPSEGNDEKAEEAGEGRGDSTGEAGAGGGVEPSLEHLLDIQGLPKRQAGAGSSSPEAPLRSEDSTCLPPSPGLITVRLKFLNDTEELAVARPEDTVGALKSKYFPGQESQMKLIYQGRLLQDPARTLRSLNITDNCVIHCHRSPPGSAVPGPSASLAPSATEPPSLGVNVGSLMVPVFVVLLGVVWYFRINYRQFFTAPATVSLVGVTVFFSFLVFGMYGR
UniProt Q6STE5, whole entry: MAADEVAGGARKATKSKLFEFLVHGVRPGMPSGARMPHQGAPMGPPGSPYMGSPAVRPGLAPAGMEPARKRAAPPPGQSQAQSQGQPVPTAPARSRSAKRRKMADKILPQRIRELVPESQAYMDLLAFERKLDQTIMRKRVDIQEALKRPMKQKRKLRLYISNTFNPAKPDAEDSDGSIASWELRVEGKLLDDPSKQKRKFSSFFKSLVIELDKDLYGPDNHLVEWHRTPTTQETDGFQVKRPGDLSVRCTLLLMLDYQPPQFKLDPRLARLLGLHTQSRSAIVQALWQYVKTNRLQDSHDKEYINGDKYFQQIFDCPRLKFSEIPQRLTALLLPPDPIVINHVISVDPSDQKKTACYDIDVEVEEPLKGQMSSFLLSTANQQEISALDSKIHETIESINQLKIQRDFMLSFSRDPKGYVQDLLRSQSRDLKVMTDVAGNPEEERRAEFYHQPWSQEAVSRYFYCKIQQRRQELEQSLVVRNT
UniProt Q7Z7A1: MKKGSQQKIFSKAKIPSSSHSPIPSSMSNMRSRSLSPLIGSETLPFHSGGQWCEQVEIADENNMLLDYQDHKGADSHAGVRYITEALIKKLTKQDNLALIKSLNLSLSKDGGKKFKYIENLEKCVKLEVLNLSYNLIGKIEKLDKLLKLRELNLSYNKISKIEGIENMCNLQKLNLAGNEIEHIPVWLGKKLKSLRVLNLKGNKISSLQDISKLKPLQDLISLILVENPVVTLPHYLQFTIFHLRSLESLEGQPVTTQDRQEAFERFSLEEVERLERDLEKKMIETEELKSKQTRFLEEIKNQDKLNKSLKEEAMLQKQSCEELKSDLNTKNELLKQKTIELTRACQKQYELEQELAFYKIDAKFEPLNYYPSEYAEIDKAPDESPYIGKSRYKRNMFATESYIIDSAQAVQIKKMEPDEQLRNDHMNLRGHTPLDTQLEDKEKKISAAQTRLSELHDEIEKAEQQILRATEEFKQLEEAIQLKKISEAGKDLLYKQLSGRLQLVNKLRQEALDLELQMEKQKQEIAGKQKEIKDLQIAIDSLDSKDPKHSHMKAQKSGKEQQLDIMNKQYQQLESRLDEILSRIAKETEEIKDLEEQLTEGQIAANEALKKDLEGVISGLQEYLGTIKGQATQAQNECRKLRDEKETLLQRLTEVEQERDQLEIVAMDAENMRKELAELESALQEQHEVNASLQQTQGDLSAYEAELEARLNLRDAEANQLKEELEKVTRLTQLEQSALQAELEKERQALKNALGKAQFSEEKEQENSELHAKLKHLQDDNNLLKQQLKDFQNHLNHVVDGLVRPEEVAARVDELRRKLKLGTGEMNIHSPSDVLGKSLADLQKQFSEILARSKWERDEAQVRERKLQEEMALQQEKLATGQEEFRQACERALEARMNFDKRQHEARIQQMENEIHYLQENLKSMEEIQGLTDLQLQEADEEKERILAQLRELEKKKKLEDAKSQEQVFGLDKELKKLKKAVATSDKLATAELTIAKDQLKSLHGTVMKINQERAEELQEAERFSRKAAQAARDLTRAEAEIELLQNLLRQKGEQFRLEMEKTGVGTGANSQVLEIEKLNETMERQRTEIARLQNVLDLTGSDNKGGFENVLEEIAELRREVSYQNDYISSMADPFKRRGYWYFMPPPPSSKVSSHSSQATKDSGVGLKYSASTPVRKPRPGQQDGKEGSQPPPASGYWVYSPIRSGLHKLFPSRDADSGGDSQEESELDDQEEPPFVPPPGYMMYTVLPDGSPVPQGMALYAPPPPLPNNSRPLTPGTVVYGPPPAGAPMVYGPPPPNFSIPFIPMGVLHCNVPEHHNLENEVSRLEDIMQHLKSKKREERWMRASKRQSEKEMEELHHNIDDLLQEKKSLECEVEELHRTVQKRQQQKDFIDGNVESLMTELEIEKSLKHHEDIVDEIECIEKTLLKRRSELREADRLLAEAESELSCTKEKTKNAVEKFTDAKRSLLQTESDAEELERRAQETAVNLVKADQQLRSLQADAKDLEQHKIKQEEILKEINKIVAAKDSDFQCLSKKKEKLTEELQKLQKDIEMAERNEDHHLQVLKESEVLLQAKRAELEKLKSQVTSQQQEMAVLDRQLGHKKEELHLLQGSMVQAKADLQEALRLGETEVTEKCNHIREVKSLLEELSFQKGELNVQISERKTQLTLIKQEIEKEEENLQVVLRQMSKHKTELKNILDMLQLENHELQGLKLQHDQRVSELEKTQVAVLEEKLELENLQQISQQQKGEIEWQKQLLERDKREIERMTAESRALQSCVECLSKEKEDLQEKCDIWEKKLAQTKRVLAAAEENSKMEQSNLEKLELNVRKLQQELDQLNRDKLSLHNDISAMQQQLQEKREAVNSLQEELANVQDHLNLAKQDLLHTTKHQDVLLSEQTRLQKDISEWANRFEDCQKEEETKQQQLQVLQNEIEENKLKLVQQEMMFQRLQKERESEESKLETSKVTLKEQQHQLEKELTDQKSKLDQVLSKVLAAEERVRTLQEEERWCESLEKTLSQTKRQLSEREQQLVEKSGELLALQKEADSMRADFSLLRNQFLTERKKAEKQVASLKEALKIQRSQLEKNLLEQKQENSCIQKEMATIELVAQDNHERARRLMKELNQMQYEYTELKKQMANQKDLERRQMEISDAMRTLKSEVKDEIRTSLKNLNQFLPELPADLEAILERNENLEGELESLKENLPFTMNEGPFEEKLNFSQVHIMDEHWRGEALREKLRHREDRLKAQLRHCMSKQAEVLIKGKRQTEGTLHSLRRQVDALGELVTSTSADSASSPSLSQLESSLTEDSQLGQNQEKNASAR
UniProt Q86SX6: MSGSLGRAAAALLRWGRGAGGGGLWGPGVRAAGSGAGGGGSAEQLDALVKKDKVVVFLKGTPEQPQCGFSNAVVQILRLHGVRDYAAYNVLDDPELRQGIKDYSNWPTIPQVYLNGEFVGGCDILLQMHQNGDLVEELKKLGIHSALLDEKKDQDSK
UniProt Q6PL24: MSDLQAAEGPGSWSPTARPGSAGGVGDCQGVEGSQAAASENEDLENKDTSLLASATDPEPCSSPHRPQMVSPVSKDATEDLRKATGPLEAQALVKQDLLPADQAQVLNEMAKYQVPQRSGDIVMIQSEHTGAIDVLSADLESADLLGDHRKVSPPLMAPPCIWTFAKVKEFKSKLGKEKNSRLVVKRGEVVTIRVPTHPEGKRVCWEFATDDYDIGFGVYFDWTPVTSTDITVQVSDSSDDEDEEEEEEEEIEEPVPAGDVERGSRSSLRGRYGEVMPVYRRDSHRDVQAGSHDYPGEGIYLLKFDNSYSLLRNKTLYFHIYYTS
UniProt Q6PK18: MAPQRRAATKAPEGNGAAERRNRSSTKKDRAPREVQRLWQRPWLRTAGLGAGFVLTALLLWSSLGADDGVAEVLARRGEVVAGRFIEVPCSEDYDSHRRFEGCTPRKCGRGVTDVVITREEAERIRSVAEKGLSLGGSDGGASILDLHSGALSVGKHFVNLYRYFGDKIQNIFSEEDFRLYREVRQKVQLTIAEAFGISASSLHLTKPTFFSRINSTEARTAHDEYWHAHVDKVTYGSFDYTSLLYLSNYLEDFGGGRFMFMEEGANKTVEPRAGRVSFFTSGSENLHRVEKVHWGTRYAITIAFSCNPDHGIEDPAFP
UniProt Q8IUD2: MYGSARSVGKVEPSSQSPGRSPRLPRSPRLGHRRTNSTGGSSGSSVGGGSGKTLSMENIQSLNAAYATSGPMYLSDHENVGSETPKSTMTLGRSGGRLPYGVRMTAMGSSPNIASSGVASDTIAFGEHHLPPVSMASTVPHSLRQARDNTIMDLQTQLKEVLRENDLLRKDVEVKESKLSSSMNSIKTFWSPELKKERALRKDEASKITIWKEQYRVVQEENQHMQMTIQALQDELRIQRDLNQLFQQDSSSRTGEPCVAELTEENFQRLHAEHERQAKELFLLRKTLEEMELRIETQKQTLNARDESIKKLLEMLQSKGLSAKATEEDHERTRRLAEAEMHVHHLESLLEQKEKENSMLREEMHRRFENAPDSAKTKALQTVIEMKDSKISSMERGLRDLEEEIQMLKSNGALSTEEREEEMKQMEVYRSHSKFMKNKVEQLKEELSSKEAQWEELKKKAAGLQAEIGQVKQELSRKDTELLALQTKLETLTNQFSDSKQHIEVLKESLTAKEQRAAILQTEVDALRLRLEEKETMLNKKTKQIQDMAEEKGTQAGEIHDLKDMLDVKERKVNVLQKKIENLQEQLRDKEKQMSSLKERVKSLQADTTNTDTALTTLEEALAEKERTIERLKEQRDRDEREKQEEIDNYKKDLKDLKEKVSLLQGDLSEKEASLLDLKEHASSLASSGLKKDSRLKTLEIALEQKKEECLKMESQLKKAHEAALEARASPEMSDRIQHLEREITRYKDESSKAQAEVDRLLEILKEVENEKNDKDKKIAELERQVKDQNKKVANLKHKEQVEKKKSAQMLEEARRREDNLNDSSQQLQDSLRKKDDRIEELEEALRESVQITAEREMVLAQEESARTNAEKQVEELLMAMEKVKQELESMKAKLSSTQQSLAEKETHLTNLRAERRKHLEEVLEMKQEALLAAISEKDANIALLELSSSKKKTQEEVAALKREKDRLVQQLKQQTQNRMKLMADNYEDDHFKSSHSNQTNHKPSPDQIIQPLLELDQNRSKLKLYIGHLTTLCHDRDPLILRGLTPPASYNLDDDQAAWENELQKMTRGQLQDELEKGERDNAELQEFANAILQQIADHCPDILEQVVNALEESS

Compound: Nc1ncnc2c1ncn2[C@@H]1O[C@H](COP(=O)(O)OP(=O)(O)OP(=O)(O)O)[C@@H](O)[C@H]1O [adenosine triphosphate]
Experiment: NP40-soluble protein abundance relative to vehicle (solubility fold change) (ratio); higher = more soluble protein in presence of ATP
Method in brief: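 Data come from three independent experiments in which Dounce-homogenised Jurkat crude lysate was treated at eight concentrations from 0.1 to 10 mM. Treatment ran 10 min at room temperature and then 3 min at 37 °C, after which 0.8% NP40 and benzonase were added for 60 min at 4 °C before ultracentrifugation. The supernatant underwent TMT labelling and LC-MS/MS, and vsn-normalised intensities were expressed as fold change against the detergent-processed vehicle in each replicate.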

UniProt Q7Z2K6 and related entries
NP40-soluble protein abundance (concentration: 0.1mM): 1.11 ± 0.17
NP40-soluble protein abundance (concentration: 0.5mM): 1.08 ± 0.039

CENPQ (UniProt Q7L2Z9)
NP40-soluble protein abundance (concentration: 0.1mM): 0.913 ± 0.069
NP40-soluble protein abundance (concentration: 0.5mM): 0.962 ± 0.15

UniProt Q8IUI8 and related entries
NP40-soluble protein abundance (concentration: 0.1mM): 1.07 ± 0.098
NP40-soluble protein abundance (concentration: 0.5mM): 1.05 ± 0.084

TRAPPC5 (UniProt Q8IUR0)
NP40-soluble protein abundance (concentration: 0.1mM): 0.952 ± 0.036
NP40-soluble protein abundance (concentration: 0.5mM): 0.904 ± 0.091

HPS6 (UniProt Q86YV9)
NP40-soluble protein abundance (concentration: 0.1mM): 0.975 ± 0.071
NP40-soluble protein abundance (concentration: 0.5mM): 0.964 ± 0.033

UniProt Q75N03 and related entries
NP40-soluble protein abundance (concentration: 0.1mM): 1.03 ± 0.062
NP40-soluble protein abundance (concentration: 0.5mM): 1.01 ± 0.039

NT5DC3 (UniProt Q86UY8)
NP40-soluble protein abundance (concentration: 0.1mM): 0.962 ± 0.1
NP40-soluble protein abundance (concentration: 0.5mM): 0.96 ± 0.14

UniProt Q8IVB4
NP40-soluble protein abundance (concentration: 0.1mM): 0.932 ± 0.21
NP40-soluble protein abundance (concentration: 0.5mM): 0.832 ± 0.021

UniProt Q7Z6K3 and related entries
NP40-soluble protein abundance (concentration: 0.1mM): 1.02 ± 0.034
NP40-soluble protein abundance (concentration: 0.5mM): 1.02 ± 0.097

UniProt Q7Z7F0
NP40-soluble protein abundance (concentration: 0.1mM): 0.994 ± 0.026
NP40-soluble protein abundance (concentration: 0.5mM): 0.994 ± 0.03

UniProt Q86UE8-2|Q86UE8-3
NP40-soluble protein abundance (concentration: 0.1mM): 1 ± 0.015
NP40-soluble protein abundance (concentration: 0.5mM): 1.03 ± 0.034

UniProt Q7LDG7 and related entries
NP40-soluble protein abundance (concentration: 0.1mM): 0.983 ± 0.049
NP40-soluble protein abundance (concentration: 0.5mM): 1.01 ± 0.071

UniProt Q86XL3 and related entries
NP40-soluble protein abundance (concentration: 0.1mM): 1.01 ± 0.026
NP40-soluble protein abundance (concentration: 0.5mM): 1.01 ± 0.036

UniProt Q7Z3K3 and related entries
NP40-soluble protein abundance (concentration: 0.1mM): 1 ± 0.029
NP40-soluble protein abundance (concentration: 0.5mM): 1.02 ± 0.057

UniProt Q86UV5 and related entries
NP40-soluble protein abundance (concentration: 0.1mM): 1.05 ± 0.06
NP40-soluble protein abundance (concentration: 0.5mM): 1.04 ± 0.044

UniProt Q71RG4 and related entries
NP40-soluble protein abundance (concentration: 0.1mM): 0.987 ± 0.071
NP40-soluble protein abundance (concentration: 0.5mM): 0.938 ± 0.11

UniProt Q6STE5 and related entries
NP40-soluble protein abundance (concentration: 0.1mM): 1.07 ± 0.086
NP40-soluble protein abundance (concentration: 0.5mM): 1.27 ± 0.19

ZDHHC13 (UniProt Q8IUH4)
NP40-soluble protein abundance (concentration: 0.1mM): 1.01 ± 0.071
NP40-soluble protein abundance (concentration: 0.5mM): 1.03 ± 0.037

HEATR3 (UniProt Q7Z4Q2)
NP40-soluble protein abundance (concentration: 0.1mM): 0.997 ± 0.027
NP40-soluble protein abundance (concentration: 0.5mM): 1.03 ± 0.038

MFSD6 (UniProt Q6ZSS7)
NP40-soluble protein abundance (concentration: 0.1mM): 0.957 ± 0.033
NP40-soluble protein abundance (concentration: 0.5mM): 0.928 ± 0.045

UniProt Q7Z7A1 and related entries
NP40-soluble protein abundance (concentration: 0.1mM): 0.946 ± 0.12
NP40-soluble protein abundance (concentration: 0.5mM): 0.987 ± 0.084

UniProt Q7RTN6 and related entries
NP40-soluble protein abundance (concentration: 0.1mM): 0.967 ± 0.11
NP40-soluble protein abundance (concentration: 0.5mM): 1.09 ± 0.08

SND1 (UniProt Q7KZF4)
NP40-soluble protein abundance (concentration: 0.1mM): 1.03 ± 0.06
NP40-soluble protein abundance (concentration: 0.5mM): 1.05 ± 0.054

TTC33 (UniProt Q6PID6)
NP40-soluble protein abundance (concentration: 0.1mM): 0.958 ± 0.022
NP40-soluble protein abundance (concentration: 0.5mM): 0.968 ± 0.015

PRPF39 (UniProt Q86UA1)
NP40-soluble protein abundance (concentration: 0.1mM): 1.06 ± 0.043
NP40-soluble protein abundance (concentration: 0.5mM): 1.004 ± 0.0043

LDB1 (UniProt Q86U70)
NP40-soluble protein abundance (concentration: 0.1mM): 1.03 ± 0.057
NP40-soluble protein abundance (concentration: 0.5mM): 1 ± 0.059

UniProt Q7Z3J2 and related entries
NP40-soluble protein abundance (concentration: 0.1mM): 1.06 ± 0.032
NP40-soluble protein abundance (concentration: 0.5mM): 1.02 ± 0.016

NUDT18 (UniProt Q6ZVK8)
NP40-soluble protein abundance (concentration: 0.1mM): 1.04 ± 0.1
NP40-soluble protein abundance (concentration: 0.5mM): 0.987 ± 0.096

GPRIN1 (UniProt Q7Z2K8)
NP40-soluble protein abundance (concentration: 0.1mM): 1 ± 0.072
NP40-soluble protein abundance (concentration: 0.5mM): 0.963 ± 0.028

MED13L (UniProt Q71F56)
NP40-soluble protein abundance (concentration: 0.1mM): 0.999 ± 0.047
NP40-soluble protein abundance (concentration: 0.5mM): 1.04 ± 0.048

UniProt Q7Z7K6 and related entries
NP40-soluble protein abundance (concentration: 0.1mM): 0.982 ± 0.1
NP40-soluble protein abundance (concentration: 0.5mM): 1.01 ± 0.13
NP40-soluble protein abundance (concentration: 1mM): 1.08 ± 0.058
NP40-soluble protein abundance (concentration: 2mM): 1.14 ± 0.19
NP40-soluble protein abundance (concentration: 4mM): 1.33 ± 0.14
NP40-soluble protein abundance (concentration: 6mM): 1.47 ± 0.24
NP40-soluble protein abundance (concentration: 8mM): 1.56 ± 0.23
NP40-soluble protein abundance (concentration: 10mM): 2.03 ± 0.28

UniProt Q8IU85 and related entries
NP40-soluble protein abundance (concentration: 0.1mM): 1.07 ± 0.082
NP40-soluble protein abundance (concentration: 0.5mM): 1.11 ± 0.061

UniProt Q70Z53
NP40-soluble protein abundance (concentration: 0.1mM): 0.988 ± 0.046
NP40-soluble protein abundance (concentration: 0.5mM): 0.99 ± 0.015
NP40-soluble protein abundance (concentration: 1mM): 0.931 ± 0.015
NP40-soluble protein abundance (concentration: 2mM): 0.927 ± 0.028
NP40-soluble protein abundance (concentration: 4mM): 0.919 ± 0.011
NP40-soluble protein abundance (concentration: 6mM): 0.922 ± 0.066
NP40-soluble protein abundance (concentration: 8mM): 0.933 ± 0.058
NP40-soluble protein abundance (concentration: 10mM): 0.936 ± 0.013

UniProt Q86UT6 and related entries
NP40-soluble protein abundance (concentration: 0.1mM): 1.17 ± 0.024
NP40-soluble protein abundance (concentration: 0.5mM): 1.09 ± 0.0094
NP40-soluble protein abundance (concentration: 1mM): 1.03 ± 0.027
NP40-soluble protein abundance (concentration: 2mM): 1.081 ± 0.0018
NP40-soluble protein abundance (concentration: 4mM): 0.99 ± 0.06
NP40-soluble protein abundance (concentration: 6mM): 1.01 ± 0.18
NP40-soluble protein abundance (concentration: 8mM): 1.02 ± 0.14
NP40-soluble protein abundance (concentration: 10mM): 1.03 ± 0.12

GLRX5 (UniProt Q86SX6)
NP40-soluble protein abundance (concentration: 0.1mM): 0.819 ± 0.12
NP40-soluble protein abundance (concentration: 0.5mM): 0.825 ± 0.18

UniProt Q7L0J3 and related entries
NP40-soluble protein abundance (concentration: 0.1mM): 1.02 ± 0.024
NP40-soluble protein abundance (concentration: 0.5mM): 0.971 ± 0.035

YRDC (UniProt Q86U90)
NP40-soluble protein abundance (concentration: 0.1mM): 0.961 ± 0.022
NP40-soluble protein abundance (concentration: 0.5mM): 0.925 ± 0.027
NP40-soluble protein abundance (concentration: 1mM): 0.928 ± 0.045
NP40-soluble protein abundance (concentration: 2mM): 0.959 ± 0.05
NP40-soluble protein abundance (concentration: 4mM): 0.93 ± 0.028
NP40-soluble protein abundance (concentration: 6mM): 0.885 ± 0.043
NP40-soluble protein abundance (concentration: 8mM): 0.896 ± 0.01
NP40-soluble protein abundance (concentration: 10mM): 0.932 ± 0.017

STX12 (UniProt Q86Y82)
NP40-soluble protein abundance (concentration: 0.1mM): 0.915 ± 0.035
NP40-soluble protein abundance (concentration: 0.5mM): 0.907 ± 0.079

UniProt Q86Y56
NP40-soluble protein abundance (concentration: 0.1mM): 1 ± 0.073
NP40-soluble protein abundance (concentration: 0.5mM): 0.998 ± 0.027
NP40-soluble protein abundance (concentration: 1mM): 0.992 ± 0.076
NP40-soluble protein abundance (concentration: 2mM): 0.985 ± 0.067
NP40-soluble protein abundance (concentration: 4mM): 0.954 ± 0.036
NP40-soluble protein abundance (concentration: 6mM): 0.917 ± 0.082
NP40-soluble protein abundance (concentration: 8mM): 0.937 ± 0.046
NP40-soluble protein abundance (concentration: 10mM): 0.976 ± 0.052

TMED8 (UniProt Q6PL24)
NP40-soluble protein abundance (concentration: 0.1mM): 1.01 ± 0.027
NP40-soluble protein abundance (concentration: 0.5mM): 1.02 ± 0.043

UniProt Q7L2H7
NP40-soluble protein abundance (concentration: 0.1mM): 0.932 ± 0.043
NP40-soluble protein abundance (concentration: 0.5mM): 0.889 ± 0.12

UniProt Q6PK18 and related entries
NP40-soluble protein abundance (concentration: 0.1mM): 1.04 ± 0.092
NP40-soluble protein abundance (concentration: 0.5mM): 0.969 ± 0.059
NP40-soluble protein abundance (concentration: 1mM): 1.06 ± 0.02
NP40-soluble protein abundance (concentration: 2mM): 1.06 ± 0.061
NP40-soluble protein abundance (concentration: 4mM): 0.955 ± 0.045
NP40-soluble protein abundance (concentration: 6mM): 1.03 ± 0.074
NP40-soluble protein abundance (concentration: 8mM): 1.09 ± 0.15
NP40-soluble protein abundance (concentration: 10mM): 1.04 ± 0.024

UniProt Q6RFH5 and related entries
NP40-soluble protein abundance (concentration: 0.1mM): 0.953 ± 0.065
NP40-soluble protein abundance (concentration: 0.5mM): 0.99 ± 0.014

UniProt Q86X83 and related entries
NP40-soluble protein abundance (concentration: 0.1mM): 1.03 ± 0.034
NP40-soluble protein abundance (concentration: 0.5mM): 1 ± 0.036
NP40-soluble protein abundance (concentration: 1mM): 1.01 ± 0.038
NP40-soluble protein abundance (concentration: 2mM): 0.975 ± 0.011
NP40-soluble protein abundance (concentration: 4mM): 0.963 ± 0.024
NP40-soluble protein abundance (concentration: 6mM): 0.927 ± 0.022
NP40-soluble protein abundance (concentration: 8mM): 0.956 ± 0.048
NP40-soluble protein abundance (concentration: 10mM): 0.971 ± 0.021

UniProt Q8IUD2 and related entries
NP40-soluble protein abundance (concentration: 0.1mM): 0.9932 ± 0.0082
NP40-soluble protein abundance (concentration: 0.5mM): 1.008 ± 0.0043
NP40-soluble protein abundance (concentration: 1mM): 0.979 ± 0.037
NP40-soluble protein abundance (concentration: 2mM): 0.985 ± 0.025
NP40-soluble protein abundance (concentration: 4mM): 0.997 ± 0.025
NP40-soluble protein abundance (concentration: 6mM): 1.01 ± 0.014
NP40-soluble protein abundance (concentration: 8mM): 0.988 ± 0.027
NP40-soluble protein abundance (concentration: 10mM): 0.997 ± 0.025
